Laboratory results taken from publication PMC11496354.

Target: T1, P2 × 7R (rat (endogenous in amygdala tissue)) (UniProt Q64663)
T1 sequence: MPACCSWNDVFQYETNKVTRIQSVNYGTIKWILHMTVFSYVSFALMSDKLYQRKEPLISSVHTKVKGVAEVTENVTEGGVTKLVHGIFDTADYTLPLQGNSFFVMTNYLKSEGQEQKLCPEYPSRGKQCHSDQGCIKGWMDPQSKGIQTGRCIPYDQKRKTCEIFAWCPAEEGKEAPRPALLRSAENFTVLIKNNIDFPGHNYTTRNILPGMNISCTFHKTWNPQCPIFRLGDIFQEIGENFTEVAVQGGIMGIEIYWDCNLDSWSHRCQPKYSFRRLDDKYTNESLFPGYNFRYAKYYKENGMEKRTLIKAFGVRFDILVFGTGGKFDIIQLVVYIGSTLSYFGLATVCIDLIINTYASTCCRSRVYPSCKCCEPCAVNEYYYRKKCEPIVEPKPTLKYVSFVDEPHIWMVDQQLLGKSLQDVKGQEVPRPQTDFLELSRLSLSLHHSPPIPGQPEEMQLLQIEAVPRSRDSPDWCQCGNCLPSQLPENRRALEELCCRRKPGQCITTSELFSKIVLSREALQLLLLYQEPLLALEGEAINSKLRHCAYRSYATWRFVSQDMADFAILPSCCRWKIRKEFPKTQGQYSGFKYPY
Test: co-IP; rat amygdala tissue lysate (1 mM EDTA, 150 mM NaCl, 20 mM Tris pH 8.0, 10% glycerol); precipitated with anti-P2 × 7R antibody or IgG and Protein A/G-Sepharose beads at 4 °C; blots for P2 × 7R and integrin β3 (legend: integrin αv too); rats of the Sham, NP, NP + pseudostimulation and NP + rTMS …

## integrin αvβ3 (rat (endogenous in amygdala tissue)) (complex)
  binding: binds

No constants are given. Whether binding was seen depends on the method and setting. Binding seen in cells or lysates may run through a third protein. Binding can be weak; no strength is given.
